Experimental data: PubChem BioAssay AID1347075 (National Center for Advancing Translational Sciences (NCATS), 2019)
About 5,500 (1.4%) of roughly 400,000 compounds were called active. Inconclusive means that the source gave no clear call. Such entries were picked first, then a sample of the others. Calls come from the whole dose curve; as a rule, active = well fitted cell-killing curve with a large enough effect; inconclusive = small, poorly fitted or top-dose-only effect, or effect the other way; inactive = flat fitted curve, though single readings scatter. Potencies beside an inconclusive call are fits to weak or partial responses and may not hold up.

Test: qHTS assay for MDR1-selective chemotherapeutics: Primary screen using the parental adenocarcinoma cell KB-3-1; note: nearly all actives have a fitted effect of over 60% in size
Details: KB-3-1 viability, CellTiter-Glo ATP luminescence, 72 h; activity change, negative = cytotoxic: at 46.1 µM (top of the series)
Method in brief: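 Cytotoxicity in the drug-sensitive parental line KB-3-1 was scored as loss of CellTiter-Glo luminescence following 72 h incubation with compound. Values come from curve fitting of normalized concentration-response data.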
% is set by controls: 0 for no effect and ±100 for the full control effect; potency is the fitted concentration of half-maximal effect.

| SMILES | activity change, negative = cytotoxic | Potency |
| --- | --- | --- |
| Nc1nc2n(n1)C(=O)CC(c1ccc(Cl)cc1)N2 (stereo not drawn) | inconclusive: -34.1% [cytotoxic] |  |
| O=c1c2ccccc2nnn1CSc1nnc(COc2ccc(Cl)cc2)n1Cc1ccco1 |  | inconclusive: 29.1 µM [cytotoxic, single point] |
| COc1ccc(-c2noc(CCCC(=O)Nc3ccc(C(N)=O)cc3)n2)cc1OC |  | inconclusive: 8.2 µM [rising, partial curve] |
| O=C(CN1CCSc2ccccc21)N1CCN(c2cccc(Cl)c2)CC1 |  | inconclusive: 29.1 µM [cytotoxic, single point] |
| CC1CCC(NC(=O)c2ccc(NC(=O)CC3SC(N4CCCC4)=NC3=O)cc2)CC1 (stereo not drawn) |  | inactive |
| COc1ccccc1C(=O)N1CCN(c2nc3cc(C)c(C)cc3cc2C#N)CC1 |  | inconclusive: 20.6 µM [cytotoxic, single point] |
| COc1ccc(NC(=O)N(C)C[C@H]2OCCCC[C@H](C)Oc3ccc(NC(=O)Nc4ccc5c(c4)OCO5)cc3C(=O)N([C@@H](C)CO)C[C@@H]2C)cc1 |  | inactive |
| Cc1cccc(Nc2nc(N)c([N+](=O)[O-])c(N3CC(C)CC(C)C3)n2)c1 (stereo not drawn) |  | inconclusive: 29.1 µM [cytotoxic, single point] |
| O=C(Nc1ccc(S(=O)(=O)N2CCOCC2)cc1)c1cc(-c2cc(Cl)ccc2O)n[nH]1 |  | active: 11.6 µM |
| C=CCn1c(-c2cccc(OC)c2OC)n[nH]c1=S |  | inconclusive: 10.3 µM [cytotoxic, partial curve] |
| CN(Cc1ccc(OCC(O)CN2CCCCC2)cc1)Cc1ccnc2ccccc12 (stereo not drawn) |  | inconclusive: 29.1 µM [cytotoxic, single point] |
| Cc1ccc(NC(=O)C(Cc2ccccc2)N2C(=O)C3C4CCC(C4)C3C2=O)cc1Cl (stereo not drawn) |  | inconclusive: 29.1 µM [cytotoxic, single point] |
| O=C(N/N=C/c1ccc2c(c1)OCO2)c1ccc(COCC(F)(F)C(F)F)cc1 |  | active: 8.2 µM |
| COc1ccc(-c2nc3ccc(Cl)cn3c2NC2CCCCC2)cc1SC1CCCCC1 |  | inconclusive: 18.4 µM [cytotoxic, single point] |
| Cc1nonc1CC(=O)NC1CC(C)(C)Cc2c1cnn2-c1ccc(F)cc1 (stereo not drawn) |  | inconclusive: 16.4 µM [cytotoxic, partial curve, poor fit] |
| COc1ccc(C(=O)N2CCN(c3cccc(Cl)c3)CC2)cc1S(=O)(=O)NC1CC1 |  | inconclusive: 29.1 µM [cytotoxic, single point] |
| CCOC(=O)C(=O)N(C)c1c(CC)nc2c(OCc3ccc(Cl)cc3)cccn12 |  | inactive |
| COc1ccc(-c2cc(C(F)(F)F)n3nc(C(=O)Nc4sc5c(c4C(=O)OC(C)C)CCCC5)cc3n2)cc1OC |  | inconclusive: 23.1 µM [cytotoxic, partial curve, poor fit] |
| CCOC(=O)C(CC)(CC)C(=O)/C=C/c1ccc(Br)cc1 |  | active: 20.6 µM |
| O=C(CCNS(=O)(=O)c1cccc2nsnc12)NCc1ccccc1Cl |  | inconclusive: 0.0046 µM [rising, full curve, poor fit] |
| Cc1ccccc1Cn1c(C)c(C(=O)N(C)Cc2ccc(F)cc2)sc1=O |  | inconclusive: 23.1 µM [cytotoxic, single point] |
| Cn1nc(C(C)(C)C)c([N+](=O)[O-])c1C(=O)NC1CCCCC1 |  | inactive |

| SMILES | activity change, negative = cytotoxic | Potency |
| --- | --- | --- |
| COCCCNC(=O)C(C#N)c1nc2ccccc2nc1N1CCN(Cc2ccccc2)CC1 (stereo not drawn) |  | inactive |
| CCOC(=O)CNC(=S)SC |  | inactive |
| N#C/C(=C\c1ccccc1[N+](=O)[O-])C(=O)NCc1ccccc1 |  | inactive |
| COCCN(C(=S)Nc1c(C)cccc1C)C(C)c1ccco1 (stereo not drawn) |  | inconclusive: 16.4 µM [rising, partial curve, poor fit] |
| O=C1c2cnc3nc(SCc4ccc(Cl)cc4)nn3c2CC2c3ccccc3CCN12 (stereo not drawn) |  | inactive |
| O=C1CSC(c2ccccn2)N1c1ccc2ccccc2c1 (stereo not drawn) |  | inconclusive: 11.2 µM [cytotoxic, partial curve] |
| O=c1c2c(nc3c(-c4ccc(Cl)cc4)c[nH]n13)CCC2 |  | inconclusive: 7.31 µM [cytotoxic, partial curve] |
| COc1ccc(NC(=O)C[C@H]2C(=O)N(Cc3ccccc3)C[C@@H]2Cc2ccccc2)cc1 |  | inactive |
| Cc1cnc(NC(=O)c2ccc3c(c2)OCCO3)s1 |  | active: 5.8 µM |
| O=c1c2sccc2n(Cc2cccc(F)c2)c(=O)n1-c1ccc(F)cc1 |  | inactive |
| CN(C)S(=O)(=O)c1ccc(Cl)c(C(=O)Nc2cccc([N+](=O)[O-])c2)c1 | inconclusive: -33.6% [cytotoxic] |  |
| CCOc1ccc(S(=O)(=O)N(CC(=O)N/N=C/c2ccc(-c3ccc([N+](=O)[O-])cc3)o2)c2ccccc2)cc1 |  | inconclusive: 23.1 µM [cytotoxic, single point] |
| CC(=O)c1ccc(NC(=S)NNC(=O)NC2CCCCC2)cc1 |  | inactive |
| COc1cc(/C=N/NC(=O)COc2cccc(F)c2)ccc1OS(=O)(=O)c1ccc(C)cc1 |  | inconclusive: 25.9 µM [cytotoxic, single point] |
| Cc1cc2c(cc(C(=O)OC(C(=O)NC3CCCCC3)C(C)C)n2C)o1 (stereo not drawn) |  | inconclusive: 16.4 µM [cytotoxic, single point] |
| Cc1ccc2c(c1)N(C(=O)N1CCC(C(=O)NCc3cccs3)CC1)CC(C)O2 (stereo not drawn) |  | inactive |
| CCCCN(Cc1ccccc1)C(=O)C1CCC(=O)N(CCc2ccccn2)C1 (stereo not drawn) |  | inconclusive: 18.4 µM [rising, single point] |
| CN(C)CCNc1cc(-c2ccncc2)nc2ccccc12 |  | inconclusive: 29.1 µM [cytotoxic, single point] |
| CC1CCCN(C(C(=O)Nc2ccc(C(C)C)cc2)c2ccc3c(c2)OCO3)C1 (stereo not drawn) |  | inconclusive: 29.1 µM [cytotoxic, single point] |
| COc1ccc(CCNC(=O)NC23CC4CC(CC(C4)C2)C3)cc1 |  | inconclusive: 0.366 µM [cytotoxic, partial curve, poor fit] |
| C=CCn1c(SCC(=O)Nc2sccc2C(N)=O)nc2sc(CC)cc2c1=O |  | inconclusive: 25.9 µM [cytotoxic, single point] |

2 entries picked at random from the list so far:

| SMILES | activity change, negative = cytotoxic | Potency |
| --- | --- | --- |
| CCOC(=O)C(CC)(CC)C(=O)/C=C/c1ccc(Br)cc1 |  | active: 20.6 µM |
| CN(Cc1ccc(OCC(O)CN2CCCCC2)cc1)Cc1ccnc2ccccc12 (stereo not drawn) |  | inconclusive: 29.1 µM [cytotoxic, single point] |
